SMILES strings stand for the structures. Counter-ions that a name gives are not always drawn. The list shows a part of the results. This data set is noisy: repeats of one test often differ as much as different tests do.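 The cells are human U-2 OS cells that stably carry a GFP sensor with a nuclear import signal and a classical export signal. They were transfected to make PR50, a 50-repeat proline–arginine dipeptide protein from the ALS/FTD gene C9ORF72. Each well's nuclear-minus-cytoplasm GFP signal was scaled from in-plate DMSO (low) to PR-only wells (high), then scored against the other test wells on the plate; compounds scoring well below zero were called hits that reverse the PR effect.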

The assay deals with U-2 OS NCT-C biosensor cells expressing PR50. Put plainly: Z-score of normalised NCT-C biosensor translocation index in PR50-expressing cells; higher = more nuclear biosensor (more disrupted nuclear export). The conditions noted are these: 3 µM; 24 h.
For `CN1CCC(=C2c3ccccc3C=Cc3ccccc32)CC1` [Cyproheptadine hydrochloride], the Z-score was inactive: 0.0913.
Consider `CN1CCC(=C2c3ccccc3C=Cc3ccccc32)CC1` [Cyproheptadine·HCl Sesquihydrate], for which the Z-score was inactive: 0.808.
In the case of `NCC(O)C1CCCCCCC1` (configuration not stated) [2-Cyclooctyl-2- hydroxyethylamin e hydrochloride], the Z-score was inactive: 0.419.
With `C[C@H]1O[C@H](O[C@H]2[C@H](O)[C@@H](O)[C@@H](O[C@H]3[C@H](O)[C@@H](O)C(O)O[C@@H]3CO)O[C@@H]2CO)[C@H](O)[C@@H](O)[C@@H]1N[C@H]1C=C(CO)[C@@H](O)[C@H](O)[C@H]1O` (some centres not stated) [Acarbose], the Z-score was inactive: 0.449.
Regarding `CC(C)(C=O)Cc1cc(C(C)(C)C)c(O)c(C(C)(C)C)c1`, the Z-score was inactive: 3.25.
With `NNCCc1ccccc1` [Phenelzine Sulfate], the Z-score was inactive: -0.0932.
In the case of `NNCCc1ccccc1` [Phenelzine sulfate salt], the Z-score is inactive: -0.0387.
Turning to `NC1(C(=O)O)CCCCC1` [1-Amino-1- cyclohexane carboxylic acid hydrochloride], the Z-score is inactive: 0.314.
With `CC(=O)Nc1ccc(C(=O)Nc2ccccc2N)cc1`, the Z-score is active: -3.21.
The same measure for `COc1cc2c(NC3CCN(C(C)C)CC3)nc(C3CCCCC3)nc2cc1OCCCN1CCCC1`: inactive: -1.43; for `CC(=O)S[C@@H]1CC2=CC(=O)CC[C@]2(C)[C@H]2CC[C@@]3(C)[C@@H](CC[C@@]34CCC(=O)O4)[C@H]12` [Spironolactone]: inactive: -0.483; for `CC(C)(C)NCC(O)COc1cccc2[nH]c(=O)[nH]c12` (racemic): inactive: 0.655.
In the case of `CC(C)c1c(C(=O)Nc2ccccc2)c(-c2ccccc2)c(-c2ccc(F)cc2)n1CC[C@@H](O)C[C@@H](O)CC(=O)O` [Atorvastatin Calcium] it was inactive: -0.247; in that of `CC(=O)OCC(=O)[C@@]1(O)CC[C@H]2[C@@H]3CCC4=CC(=O)CC[C@]4(C)[C@H]3[C@@H](O)C[C@@]21C` [Hydrocortisone Acetate], inactive: -0.05.
`CN(C)CCC(c1ccc(Cl)cc1)c1ccccn1` (racemic) [(±)-  Chlorpheniramine maleate]: the Z-score was inactive: -0.544.
In the case of `CCN[C@H]1CN(CCCOC)S(=O)(=O)c2sc(S(N)(=O)=O)cc21` [Brinzolamide], the Z-score was inactive: -0.765.
`NS(=O)(=O)c1cc(C2(O)NC(=O)c3ccccc32)ccc1Cl` (configuration not stated) [Chlorthalidone]: the Z-score was inactive: 0.299.
As to `C=CC(N)CCC(=O)O` (configuration not stated) [Vigabatrin], the Z-score is inactive: -0.965.
The same measure for `COc1ccc(-c2cc(=O)c3c(O)c(OC)c(OC)cc3o2)cc1O` [Eupatorin]: inactive: 0.244; for `CC(=O)OCC(=O)[C@@]1(O)CC[C@H]2[C@@H]3CCC4=CC(=O)CC[C@]4(C)[C@@]3(F)[C@@H](O)C[C@@]21C` [Fludrocortisone Acetate]: inactive: 1.51; for `O=C(O)CCCCCCCC(=O)O` [Azelaic acid]: inactive: 0.477.
Regarding `O=C(O)CCCCCCCC(=O)O` [Azelaic Acid], the Z-score was inactive: -0.537.
On to `CC(C)c1cc(/C=C(\C#N)C(=O)NCCCc2ccccc2)cc(C(C)C)c1O`, for which the Z-score is inactive: 0.0839.
In the case of `CC(=Cc1ccc(C(=O)O)cc1)c1ccc2c(c1)C(C)(C)CCC2(C)C` it was inactive: -0.892.
As for `O=C(C(c1ccccc1)c1ccccc1)N1CCN(CC(O)COc2cccc3ncccc23)CC1` (configuration not stated) [Dofequidar fumarate], the Z-score was inactive: -0.159.
`Cc1ccc2c(c1CCC(=O)O)CC[C@@H](NS(=O)(=O)c1ccc(Cl)cc1)C2` [Terutroban]: the Z-score is inactive: 0.895.
In the case of `Cc1ccc(C(=O)c2ccc(CC(=O)O)n2C)cc1` [Tolmetin sodium dihydrate] it was inactive: -0.35; in that of `COC(=O)Nc1nc2cc(C(=O)c3cccs3)ccc2[nH]1` [Nocodazole], inactive: 0.426; in that of `O=C(/C=C/C#Cc1cccc(NS(=O)(=O)c2ccccc2)c1)NO` [Oxamflatin], inactive: 2.85.
In the case of `Cc1cn[nH]c1` [4-Methylpyrazole hydrochloride] it was inactive: -0.836.
For `Cc1cn[nH]c1` [Fomepizole], the Z-score is inactive: 1.96.
In the case of `OCCN1CCN(CC/C=C2/c3ccccc3Sc3ccc(C(F)(F)F)cc32)CC1` [cis(Z)-Flupenthixol dihydrochloride], the Z-score is inactive: -0.013.
For `N=C1CCCN1Cc1[nH]c(=O)[nH]c(=O)c1Cl` [Tipiracil hydrochloride], the Z-score was inactive: -0.427.
For `C[C@@H](NCCCc1cccc(C(F)(F)F)c1)c1cccc2ccccc12` [Cinacalcet·HCl], the Z-score is inactive: 0.468.
In the case of `CC[N+](C)(C)c1cccc(O)c1` [Edrophonium chloride] it was inactive: 0.244; in that of `NCCc1c[nH]cn1` [Histamine dihydrochloride], inactive: 0.321; in that of `OC(Cn1cncn1)(Cn1cncn1)c1ccc(F)cc1F` [Fluconazole], inactive: 0.916.
On to `C#CC(N)CCC(=O)O` (configuration not stated) [gamma-Acetylinic GABA], for which the Z-score was inactive: -0.0868.
Regarding `COc1cc([C@@H]2CC(=O)c3c(O)cc(O)cc3O2)ccc1O` [Homoeriodictyol], the Z-score is inactive: -0.318.
On to `N=C(NC(=O)c1nc(Cl)c(N)nc1N)Nc1ccccc1` [Phenamil methanesulfonate], for which the Z-score is inactive: -0.84.
In the case of `O=C1C[C@@H](c2ccccc2)Oc2cc(O)cc(O)c21` [Pinocembrin] it was inactive: -0.301; in that of `COc1cc(C(=O)OCCCN2CCCN(CCCOC(=O)c3cc(OC)c(OC)c(OC)c3)CC2)cc(OC)c1OC` [Dilazep Dihydrochloride], inactive: -1.25.
As to `O=C1NC(=O)c2c1c(-c1ccccc1)cc1[nH]c3ccc(O)cc3c21`, the Z-score is inactive: 0.0316.
Regarding `CCN(CC)CCOC(=O)C1(C2CCCCC2)CCCCC1` [Dicyclomine hydrochloride], the Z-score was inactive: -0.367.
As to `CCN(CC)CCOC(=O)C1(C2CCCCC2)CCCCC1` [Dicyclomine·HCl], the Z-score is inactive: -0.0536.
Turning to `O=c1cc(-c2ccccc2)oc2c(O)c(O)ccc12` [7,8-  Dihydroxyflavone hydrate], the Z-score is inactive: -0.198.
Turning to `CCCc1cc(C)[nH]c(=O)c1CNC(=O)c1cc(-c2ccc(N3CCN(C(C)C)CC3)nc2)cc2c1cnn2C(C)C`, the Z-score is active: -3.17.
Turning to `CC(N/C(=N\C#N)Nc1ccncc1)C(C)(C)C` (configuration not stated) [Pinacidil], the Z-score is inactive: 0.53.
`C[N+]1(C)CCC(OC(=O)C(c2ccccc2)c2ccccc2)CC1`: the Z-score was inactive: -0.189.
As to `C[N+]1(C)CCC(OC(=O)C(c2ccccc2)c2ccccc2)CC1` [4-DAMP  methiodide], the Z-score was inactive: 1.8.
As to `COc1cc(C(=O)O[C@H]2C[C@@H]3CC[C@]2(C)C3(C)C)ccc1O` [Tschimganine], the Z-score was inactive: -0.188.
On to `CC(=O)Oc1ccccc1C(=O)Nc1ncc([N+](=O)[O-])s1` [Nitazoxanide], for which the Z-score is inactive: -0.725.
As to `Cc1[nH]ccc2c1[nH]c1cc(=O)ccc12` [Harmol·HCl·2H2O], the Z-score is inactive: 0.248.
For the compound `CCCCCCCCCC(=O)NC(CN1CCOCC1)C(C)c1ccccc1` (racemic), the Z-score was inactive: 0.307.
As for `CCc1ccccc1OC[C@@H](O)CN[C@H]1CCCc2ccccc21`, the Z-score is inactive: -0.128.
Regarding `N=C(NCCCCCCNC(=N)NC(=N)Nc1ccc(Cl)cc1)NC(=N)Nc1ccc(Cl)cc1` [Chlorhexidine Dihydrochloride], the Z-score is inactive: 0.271.
`CN1CCN(C2=Nc3ccccc3Oc3ccc(Cl)cc32)CC1` [Loxapine Succinate]: the Z-score is inactive: -1.05.
On to `CN1CCN(C2=Nc3ccccc3Oc3ccc(Cl)cc32)CC1` [Loxapine succinate], for which the Z-score is inactive: -0.246.
`CN(C)C(=O)Nc1cccc(-c2ccc(N(C)C)cc2)c1` [Atglistatin]: the Z-score is inactive: 0.893.
Take `Clc1ccc(CCC(Cn2ccnc2)Sc2c(Cl)cccc2Cl)cc1` (configuration not stated) [Butoconazole Nitrate]: the Z-score was inactive: 0.51.
Take `N#Cc1ccc(C(c2ccc(C#N)cc2)n2cncn2)cc1` [Letrozole]: the Z-score is inactive: -0.548.
With `COC1=C[C@@H](C)[C@@H]2C[C@H]3OC(=O)C[C@H]4C(C)=C(OC)C(=O)[C@H]([C@@]2(C)C1=O)[C@@]34C` [Quassin], the Z-score is inactive: -0.618.
Turning to `C[N+]1(C)CCC(OC(=O)C(O)(c2ccccc2)C2CCCC2)C1` (configuration not stated) [Glycopyrrolate Iodide], the Z-score is inactive: -0.318.
On to `C[C@@H]1C[C@H]2O[C@@H]2/C=C\C=C\C(=O)Cc2c(Cl)c(O)cc(O)c2C(=O)O1` [Radicicol], for which the Z-score is inactive: -1.31.
As to `Cc1nnc(C(=O)NC(C)(C)c2nc(C(=O)NCc3ccc(F)cc3)c(O)c(=O)n2C)o1` [Raltegravir potassium], the Z-score is inactive: -0.529.
The same measure for `CC(=O)/C=C1/C(=O)N(C)c2ccccc21` [Supercinnamaldehyde]: inactive: 4.
As to `Cc1cc(CN2CCN(c3c(Br)cnc4nc(-c5ccc(N6CCN(C)CC6)cc5)[nH]c34)CC2)no1`, the Z-score was inactive: 0.0302.
As for `Cc1ccc(=O)n(-c2ccccc2)c1` [Pirfenidone], the Z-score was inactive: -0.0797.
With `O=C(Nc1ccncc1)c1cc([N+](=O)[O-])ccc1Cl`, the Z-score was inactive: -0.232.
In the case of `Cc1cc(NC(=O)Nc2ccc3c(ccn3C)c2)sn1` it was inactive: -0.417; in that of `N#Cc1cc2nc(O)c(O)nc2cc1[N+](=O)[O-]` [CNQX disodium], inactive: 0.0822; in that of `C[C@@H](CN1CCC(Cc2ccccc2)CC1)[C@@H](O)c1ccc(O)cc1` [Ro 25-6981  hydrochloride], inactive: -0.994.

The record behind these values is the supplement of paper PMC8616043.
